Measured values taken from article doi:10.1101/2025.10.14.682307.

Sequences of proteins named here, by UniProt entry; tags and fusion partners are left off.
UniProt Q15022: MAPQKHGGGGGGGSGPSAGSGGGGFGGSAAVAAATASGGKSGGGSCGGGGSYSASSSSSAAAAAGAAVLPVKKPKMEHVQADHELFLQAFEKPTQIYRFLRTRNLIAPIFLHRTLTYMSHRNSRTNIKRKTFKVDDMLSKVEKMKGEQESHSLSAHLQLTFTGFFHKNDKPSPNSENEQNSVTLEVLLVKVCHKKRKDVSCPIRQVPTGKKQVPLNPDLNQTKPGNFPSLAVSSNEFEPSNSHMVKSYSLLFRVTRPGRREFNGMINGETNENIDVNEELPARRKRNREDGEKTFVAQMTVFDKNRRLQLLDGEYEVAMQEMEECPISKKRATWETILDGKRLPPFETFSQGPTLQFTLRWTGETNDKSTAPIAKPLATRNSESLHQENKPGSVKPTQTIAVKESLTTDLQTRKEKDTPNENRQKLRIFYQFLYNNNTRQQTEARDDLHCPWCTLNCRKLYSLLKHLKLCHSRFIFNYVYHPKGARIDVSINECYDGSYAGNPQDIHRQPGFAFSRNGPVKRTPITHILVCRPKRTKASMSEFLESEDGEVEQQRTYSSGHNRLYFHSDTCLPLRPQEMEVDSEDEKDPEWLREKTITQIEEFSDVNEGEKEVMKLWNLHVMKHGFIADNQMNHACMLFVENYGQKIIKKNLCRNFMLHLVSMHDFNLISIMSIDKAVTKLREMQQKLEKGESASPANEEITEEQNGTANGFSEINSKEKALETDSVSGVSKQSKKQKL
UniProt Q9Y483: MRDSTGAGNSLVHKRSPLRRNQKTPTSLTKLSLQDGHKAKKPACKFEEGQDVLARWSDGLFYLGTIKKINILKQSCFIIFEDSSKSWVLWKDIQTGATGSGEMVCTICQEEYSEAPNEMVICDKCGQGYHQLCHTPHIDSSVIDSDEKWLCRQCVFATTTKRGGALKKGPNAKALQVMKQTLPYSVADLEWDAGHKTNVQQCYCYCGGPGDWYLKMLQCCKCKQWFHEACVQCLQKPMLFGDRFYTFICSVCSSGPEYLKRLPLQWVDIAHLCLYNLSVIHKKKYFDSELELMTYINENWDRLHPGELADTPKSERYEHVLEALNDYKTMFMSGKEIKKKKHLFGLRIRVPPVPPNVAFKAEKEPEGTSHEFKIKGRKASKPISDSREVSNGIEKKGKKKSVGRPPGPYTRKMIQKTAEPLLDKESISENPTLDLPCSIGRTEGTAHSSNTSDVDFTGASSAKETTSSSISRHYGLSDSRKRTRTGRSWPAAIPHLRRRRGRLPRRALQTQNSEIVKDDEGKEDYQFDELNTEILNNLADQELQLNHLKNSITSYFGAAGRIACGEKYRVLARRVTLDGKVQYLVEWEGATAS

Biological target: SUZ12 (human (endogenous in WSU-DLCL2)) (UniProt Q15022)
Experiment: affinity purification with mass spectrometry

Question: Which binding does the source give for MTF2 (from UniProt Q9Y483 1-593) here?
Answer: The binding was “binds”.

These are yes or no findings as the source states them, for the method shown. Binding seen in cells or lysates may run through a third protein. A yes stands for co-enrichment or nearness to the bait. Other partners may have been found.
